# Some of the results follow. The main result of the screen is listed elsewhere. These columns were measured beside it and carry no call. Compounds called inactive in the main read-out are mostly missing here. Words in brackets tell the shape of the fitted curve; partial curves, single points and poor fits give uncertain potencies.
# Experiment: qHTS Assay for Modulators of Lamin A Splicing
# Conditions: HeLa LMNA splicing GFP/RFP minigene ratio, 48 h
# In short: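 S3 HeLa cells stably expressing lamin A-EGFP splicing minigene plus DsRed2, 600 cells/well, 48 h compound exposure at 37C. Laser-scanning cytometry; analysed as GFP (500-530 nm)/RFP (575-640 nm) total intensity ratio; 0.5% DMSO vehicle.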
# [1] = measured here: GFP splicing reporter channel
# [2] = measured here: RFP viability control channel
Compound,AC50 [1],AC50 [2]
N#CCCn1cc(C(=O)NCc2ccccc2)c(-c2ccc3c(c2)OCCO3)n1,"0.251 µM [rising, full curve, poor fit]","0.316 µM [rising, full curve]"
CC(C)Oc1cccnc1N(C)C1CCN(Cc2ccccc2)CC1,"3.55 µM [rising, single point]","1.12 µM [rising, single point]"
CC1CCC(C(C)C)C(OP(=O)(c2ccc(N(C)C)cc2)C(O)c2cccnc2)C1 (stereo unspecified),"31.6 µM [rising, single point]","31.6 µM [rising, single point]"
O=C(COc1ccc(S(=O)(=O)N2CCCCC2)cc1)N1CCN(Cc2ccccc2)CC1,,"35.5 µM [rising, single point]"
CCOC(=O)Cn1c(=O)oc2cc(S(=O)(=O)N3CCN(C(=O)c4ccco4)CC3)ccc21,,"17.8 µM [rising, single point]"
C[C@H](N)[C@@H](O)c1ccccc1,"2.51 µM [falling, partial curve, poor fit]","7.94 µM [falling, partial curve, poor fit]"
O=c1[nH]c2ccccc2c(=O)n1-c1ccc(Cl)cc1Cl,"35.5 µM [falling, partial curve, poor fit]",
O=c1c2ccccc2nc(/C=C/c2ccc3c(c2)OCO3)n1-c1ccccc1,"2.82 µM [falling, partial curve]","7.08 µM [rising, full curve, poor fit]"
Cc1ccc2c(c1)C1CN(C)CCC1N2C(=O)Nc1ccc(Cl)cc1 (stereo unspecified),,"20 µM [rising, single point]"
CN(C(=O)Oc1ccc(C(=O)c2ccc(Cl)cc2)cc1)c1ccccc1,,"22.4 µM [rising, single point]"
O=C(NCc1ccc2c(c1)CCN2C(=O)c1ccccc1)Nc1cccc(C(F)(F)F)c1,,"5.62 µM [rising, partial curve]"
COc1cc2ccc(=O)oc2c2ccoc12,,"2.51 µM [rising, single point]"
NCC1(CC(=O)O)CCCCC1,"0.00891 µM [falling, full curve, poor fit]","14.1 µM [falling, partial curve, poor fit]"
O=c1c2ccccc2nc(-c2ccccc2)n1-c1ccc(O)cc1,"0.00891 µM [rising, full curve, poor fit]",
CCOC(=O)C1(c2ccccc2)CCN(CC(=O)Nc2ccc(C)cc2)CC1,"17.8 µM [falling, single point]",
O=c1[nH]c(=O)n(-c2ccccc2)c(O)c1/C=C1/C(c2ccccc2)=Nc2ccccc21,,"8.91 µM [rising, partial curve, poor fit]"
O=C(Cn1ccc2ccccc2c1=O)NCC(=O)N1CCC2(CC1)OCCO2,"2.51 µM [rising, partial curve]",
COc1cc(CN2CCN(c3cc(C)ccc3C)CC2)ccc1O,,"22.4 µM [rising, single point]"
Cc1ccccc1,,"6.31 µM [falling, single point]"
COc1ccc(-n2c(O)c(/C=C/C=Nc3ccccc3)c(=O)[nH]c2=O)cc1,"10 µM [falling, partial curve]","10 µM [falling, partial curve]"
COC(=O)c1c(-c2ccc(Cl)cc2)noc1N1CCN(c2ccc(C(C)=O)cc2)CC1,,"5.01 µM [rising, partial curve, poor fit]"
O=C(CNC(=O)c1ccccc1Cl)Nc1ccc(Br)cc1C(=O)c1ccccc1,,"17.8 µM [rising, partial curve, poor fit]"
CN1C2CCC1CC(OC(c1ccccc1)c1ccc(Cl)cc1)C2 (stereo unspecified),"7.08 µM [falling, full curve, poor fit]","5.62 µM [falling, partial curve]"
N=C1c2ccccc2CN1c1ncccn1,,"11.2 µM [rising, partial curve]"
CCCn1c(=O)c2[nH]c(C3CCCC3)nc2n(CCCOC(=O)c2ccc(S(=O)(=O)F)cc2)c1=O,"12.6 µM [falling, partial curve]","0.0178 µM [falling, full curve, poor fit]"
COc1cc2c(C(=O)O)c(C)n(C)c2cc1Br,"14.1 µM [rising, partial curve, poor fit]",
C=CCN1CC[C@]23c4c5ccc(O)c4O[C@@H]2/C(=N/N=C2\CC[C@@]4(O)C6Cc7ccc(O)c8c7[C@@]4(CCN6CC=C)[C@@H]2O8)CC[C@@]3(O)C1C5,"12.6 µM [falling, partial curve, poor fit]","7.08 µM [falling, full curve, poor fit]"
C[C@@]12CC[C@H]3[C@@H](CCC4=CC(=O)CC[C@]43C)[C@H]1CC[C@H]2C(=O)CO,,"3.98 µM [falling, partial curve]"

Compound,AC50 [1],AC50 [2]
CC(Cc1ccccc1)NC(=O)CN1CCCC1=O (stereo unspecified),,"5.62 µM [falling, single point]"
CCc1nn(CC(=O)N2CCN(Cc3ccc4c(c3)OCO4)CC2)c(=O)c2cc3occc3n12,,"20 µM [rising, single point]"
Cc1nc2ccccn2c1P(=S)(N1CCCCC1)N1CCCCC1,,"35.5 µM [rising, single point]"
c1cnc2c(c1)ccc1ncccc12,"0.0794 µM [falling, full curve, poor fit]","0.0562 µM [falling, full curve, poor fit]"
COC(=O)C(C)Oc1cc(C)cc2oc(=O)c3c(c12)CCC3 (stereo unspecified),"0.501 µM [rising, full curve, poor fit]",
CC[C@@H]1[C@@H]2C[C@H]3[C@H]4N(C)c5ccccc5[C@@]45C[C@@H]([C@@H]2[C@@H]5O)N3[C@H]1O,"3.16 µM [falling, single point]",
COc1cccc(C2=CC(c3cc(Br)ccc3F)n3nnnc3N2)c1 (stereo unspecified),,"35.5 µM [falling, single point]"
CNC(=O)Oc1cccc2ccccc12,"0.0112 µM [falling, full curve, poor fit]",
Cc1ccccc1-n1c(O)c(C=Nc2ccc(N(C)C)cc2)c(=O)[nH]c1=O,,"12.6 µM [falling, partial curve, poor fit]"
CC(=O)c1cccc(OCC(O)CN2CC=C(c3ccccc3)CC2)c1 (stereo unspecified),"11.2 µM [rising, single point]","6.31 µM [rising, partial curve, poor fit]"
Cc1ncsc1CCCl,"20 µM [falling, single point]","0.0224 µM [falling, full curve, poor fit]"
C=CC1CN2CCC1CC2[C@@H](OC(=O)c1ccc(OC)cc1)c1ccnc2ccccc12 (stereo partly specified),"0.316 µM [rising, partial curve, poor fit]","1.12 µM [rising, partial curve]"
O=C(c1cccn2c(=O)c3cc(Cl)ccc3nc12)N1CCC2(CC1)OCCO2,"0.0562 µM [rising, full curve, poor fit]",
C[C@@H](C(=O)O)c1ccc(-c2ccccc2)c(F)c1,"3.16 µM [falling, single point]","3.16 µM [falling, single point]"
C[C@H]1CCC[C@@H](O)CCC/C=C/c2cc(O)cc(O)c2C(=O)O1,"3.98 µM [falling, partial curve, poor fit]","3.98 µM [rising, full curve]"
CN1CCN(Cc2ccc(N)cc2)CC1,"11.2 µM [falling, partial curve]","14.1 µM [falling, partial curve]"
CCOc1ccc(/C=C/C(=O)C(C(N)=O)=C2SCCS2)cc1,,"7.08 µM [rising, partial curve]"
Nc1cncc(C(=O)O)c1,,"1.58 µM [falling, full curve, poor fit]"
CCOC(C(=O)OCC(O)CN(CC)CC)(c1ccccc1)c1ccccc1 (stereo unspecified),,"0.0355 µM [falling, full curve, poor fit]"
Cc1ccc(S(=O)(=O)N2CCC(=O)N(CCOC(=O)Nc3cccc(Cl)c3)CC2)cc1,"15.8 µM [rising, single point]","25.1 µM [rising, single point]"
CCCCCCC(C)(C)c1ccc([C@@H]2C[C@H](O)CC[C@H]2CCCO)c(O)c1,"28.2 µM [falling, partial curve, poor fit]","20 µM [falling, partial curve]"
C#CCN1C(=O)C2(C(C#N)=C(N)OC(C)=C2C(=O)OCc2ccccc2)c2ccccc21 (stereo unspecified),,"3.98 µM [rising, full curve]"
c1ccc(-c2[nH]c(-c3ccccc3)[n+](CC3CO3)c2-c2ccccc2)cc1 (stereo unspecified),,"10 µM [rising, partial curve]"
COc1cc2c(cc1O)[C@H]1Cc3ccc(OC)c(O)c3CN1CC2,"10 µM [falling, single point]","10 µM [falling, single point]"
CCc1cc(=O)[nH]c(SCCCF)n1,,"0.00282 µM [falling, full curve, poor fit]"
FC(F)(F)c1ccc2c(c1)nnn2C1CCN(Cc2nnnn2Cc2ccccc2)CC1,,"28.2 µM [rising, single point]"
CC(=O)[C@H]1CCC2C3CC[C@H]4C[C@H](O)CC[C@]4(C)C3CC[C@@]21C (stereo partly specified),"0.316 µM [rising, full curve, poor fit]","22.4 µM [falling, partial curve]"

# Three of the compounds above, as tab-separated lines:
Compound	AC50 [1]	AC50 [2]
CC(Cc1ccccc1)NC(=O)CN1CCCC1=O (stereo unspecified)		5.62 µM [falling, single point]
Cc1ccccc1-n1c(O)c(C=Nc2ccc(N(C)C)cc2)c(=O)[nH]c1=O		12.6 µM [falling, partial curve, poor fit]
COc1cc2c(cc1O)[C@H]1Cc3ccc(OC)c(O)c3CN1CC2	10 µM [falling, single point]	10 µM [falling, single point]

# Source: PubChem BioAssay AID1487 (National Center for Advancing Translational Sciences (NCATS), 2009)
